B1: TRX3 (protein, UniProt Q42403 1-118)
chain: MAAEGEVIACHTVEDWTEKLKAANESKKLIVIDFTATWCPPCRFIAPVFADLAKKHLDVVFFKVDVDELNTVAEEFKVQAMPTFIFMKEGEIKETVVGAAKEEIIANLEKHKTVVAAA
B2: ascorbate peroxidase (APX1) (enzyme, UniProt Q05431 1-250)
chain: MTKNYPTVSEDYKKAVEKCRRKLRGLIAEKNCAPIMVRLAWHSAGTFDCQSRTGGPFGTMRFDAEQAHGANSGIHIALRLLDPIREQFPTISFADFHQLAGVVAVEVTGGPDIPFHPGREDKPQPPPEGRLPDATKGCDHLRDVFAKQMGLSDKDIVALSGAHTLGRCHKDRSGFEGAWTSNPLIFDNSYFKELLSGEKEGLLQLVSDKALLDDPVFRPLVEKYAADEDAFFADYAEAHMKLSELGFADA
B3: PATELLIN1 (PATL1) (protein, UniProt Q56WK6 1-573)
chain: MAQEEVQKSADVAAAPVVKEKPITDKEVTIPTPVAEKEEVAAPVSDEKAVPEKEVTPEKEAPAAEAEKSVSVKEEETVVVAEKVVVLTAEEVQKKALEEFKELVREALNKREFTAPVTPVKEEKTEEKKTEEETKEEEKTEEKKEETTTEVKVEEEKPAVPAAEEEKSSEAAPVETKSEEKPEEKAEVTTEKASSAEEDGTKTVEAIEESIVSVSPPESAVAPVVVETVAVAEAEPVEPEEVSIWGVPLLQDERSDVILTKFLRARDFKVKEALTMLKNTVQWRKENKIDELVESGEEVSEFEKMVFAHGVDKEGHVVIYSSYGEFQNKELFSDKEKLNKFLSWRIQLQEKCVRAIDFSNPEAKSSFVFVSDFRNAPGLGKRALWQFIRRAVKQFEDNYPEFAAKELFINVPWWYIPYYKTFGSIITSPRTRSKMVLAGPSKSADTIFKYIAPEQVPVKYGGLSKDTPLTEETITEAIVKPAANYTIELPASEACTLSWELRVLGADVSYGAQFEPTTEGSYAVIVSKTRKIGSTDEPVITDSFKVGEPGKIVITIDNQTSKKKKVLYRFKTQ
B4: PATELLIN4 (PATL4) (protein, UniProt Q94C59 1-540)
chain: MTAEVKVEEKQVESEVVIAPAVVPEETTVKAVVEETKVEEDESKPEGVEKSASFKEESDFFADLKESEKKALSDLKSKLEEAIVDNTLLKTKKKESSPMKEKKEEVVKPEAEVEKKKEEAAEEKVEEEKKSEAVVTEEAPKAETVEAVVTEEIIPKEEVTTVVEKVEEETKEEEKKTEDVVTEEVKAETIEVEDEDESVDKDIELWGVPLLPSKGAESTDVILLKFLRARDFKVNEAFEMLKKTLKWRKQNKIDSILGEEFGEDLATAAYMNGVDRESHPVCYNVHSEELYQTIGSEKNREKFLRWRFQLMEKGIQKLNLKPGGVTSLLQIHDLKNAPGVSRTEIWVGIKKVIETLQDNYPEFVSRNIFINVPFWFYAMRAVLSPFLTQRTKSKFVVARPAKVRETLLKYIPADELPVQYGGFKTVDDTEFSNETVSEVVVKPGSSETIEIPAPETEGTLVWDIAVLGWEVNYKEEFVPTEEGAYTVIVQKVKKMGANEGPIRNSFKNSQAGKIVLTVDNVSGKKKKVLYRYRTKTESSS
B5: catalase (CAT3) (enzyme, UniProt Q42547 1-492)
chain: MDPYKYRPSSAYNAPFYTTNGGAPVSNNISSLTIGERGPVLLEDYHLIEKVANFTRERIPERVVHARGISAKGFFEVTHDISNLTCADFLRAPGVQTPVIVRFSTVVHERASPETMRDIRGFAVKFYTREGNFDLVGNNTPVFFIRDGIQFPDVVHALKPNPKTNIQEYWRILDYMSHLPESLLTWCWMFDDVGIPQDYRHMEGFGVHTYTLIAKSGKVLFVKFHWKPTCGIKNLTDEEAKVVGGANHSHATKDLHDAIASGNYPEWKLFIQTMDPADEDKFDFDPLDVTKIWPEDILPLQPVGRLVLNRTIDNFFNETEQLAFNPGLVVPGIYYSDDKLLQCRIFAYGDTQRHRLGPNYLQLPVNAPKCAHHNNHHEGFMNFMHRDEEINYYPSKFDPVRCAEKVPTPTNSYTGIRTKCVIKKENNFKQAGDRYRSWAPDRQDRFVKRWVEILSEPRLTHEIRGIWISYWSQADRSLGQKLASRLNVRPSI

Among the data in paper PMC10152663, “SEC14-GOLD protein PATELLIN2 binds IRON-REGULATED TRANSPORTER1 linking root iron uptake to vitamin E” (Plant Physiology, 2022) are binding values, retold here.

No constants are given. Whether binding was seen depends on the method and setting. Binding seen in cells or lysates may run through a third protein. These calls come from enrichment with a bait or labelling near it, and not all partners need be listed. Tags and fused reporters may be left off the sequences shown.

The target in this assay is T1, PATL2-HA3, triple hemagglutinin-tagged PATELLIN2 (pro35S::PATL2-HA3 Arabidopsis roots) (Arabidopsis thaliana) (UniProt Q56ZI2).
T1 sequence: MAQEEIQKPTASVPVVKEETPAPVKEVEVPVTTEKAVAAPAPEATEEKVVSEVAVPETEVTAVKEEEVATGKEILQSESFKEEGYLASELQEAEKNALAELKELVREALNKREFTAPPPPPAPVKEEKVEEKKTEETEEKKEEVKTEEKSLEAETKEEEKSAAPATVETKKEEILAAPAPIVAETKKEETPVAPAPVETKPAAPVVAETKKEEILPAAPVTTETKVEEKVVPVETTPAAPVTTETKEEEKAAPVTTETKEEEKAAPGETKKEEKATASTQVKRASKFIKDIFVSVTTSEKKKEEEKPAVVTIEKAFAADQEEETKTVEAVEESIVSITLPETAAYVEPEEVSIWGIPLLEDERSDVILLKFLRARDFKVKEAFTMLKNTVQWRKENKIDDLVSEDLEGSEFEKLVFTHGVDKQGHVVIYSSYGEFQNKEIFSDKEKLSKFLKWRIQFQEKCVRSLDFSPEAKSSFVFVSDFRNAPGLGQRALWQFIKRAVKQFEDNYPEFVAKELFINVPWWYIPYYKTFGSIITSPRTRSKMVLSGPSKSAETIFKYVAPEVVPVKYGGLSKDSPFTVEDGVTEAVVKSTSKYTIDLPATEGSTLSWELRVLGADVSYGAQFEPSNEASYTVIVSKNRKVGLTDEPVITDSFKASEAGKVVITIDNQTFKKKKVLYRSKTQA
Briefly: affinity purification with mass spectrometry; anti-HA magnetic beads on roots of pro35S::PATL2-HA3 and wild-type Arabidopsis, 14 + 3 d system, 0 µM Fe and 50 µM Fe, 5 biological replicates; label-free quantification, enrichment against wild type.
Turning to B1, the binding result is “binds”.

B2: the binding entry was “binds”. Then B3, with “binds”; and B4, with “binds”.

B5: the binding entry is “binds”.
